The source of these data is PMC8469489, “Effect of Lactic Acid Bacteria on the Pharmacokinetics and Metabolism of Ginsenosides in Mice” (Pharmaceutics, 2021).

Series [1] deals with Caco-2 cells. The following applies: cited from earlier work.
Series [2] is described as follows: Caco-2 permeability (apical to basal). The following applies: human, Caco-2, pH 7.4.

As for `CC(C)NCC(O)COc1ccc(CC(N)=O)cc1` (centres unmarked) [atenolol], the “Papp,AB reference values” in series [1] is on record as 0.38–0.45 × 10^−6 cm/s. In series [2], this compound gave a Papp A→B at 1 h of 0.46 ± 0.14 ×10⁻⁶ cm/s.

For orientation: Papp A→B means the apparent permeability from the apical to the basolateral side of a cell layer. Read a low Papp A→B as poor permeation.
